Patent publication US20200347441
Construct, isoform or probe ends are uncertain for at least one entry. Where a protein sequence is shown, tags need not be part of it.

System: T1, TnAa transposase wild-type (Alishewanella aestuarii)
T1 sequence: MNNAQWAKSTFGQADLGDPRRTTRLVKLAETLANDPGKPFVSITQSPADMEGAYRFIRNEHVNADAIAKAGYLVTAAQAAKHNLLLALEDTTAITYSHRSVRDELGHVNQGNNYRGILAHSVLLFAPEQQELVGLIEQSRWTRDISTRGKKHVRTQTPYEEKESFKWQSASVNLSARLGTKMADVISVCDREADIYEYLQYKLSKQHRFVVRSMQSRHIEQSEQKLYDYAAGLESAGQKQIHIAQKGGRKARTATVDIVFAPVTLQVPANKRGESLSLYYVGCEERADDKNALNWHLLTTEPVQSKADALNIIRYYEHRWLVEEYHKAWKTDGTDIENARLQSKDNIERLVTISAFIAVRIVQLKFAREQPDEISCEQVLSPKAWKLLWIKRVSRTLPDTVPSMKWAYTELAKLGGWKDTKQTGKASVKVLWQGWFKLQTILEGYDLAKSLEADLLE
Assay: activity in cells
Conditions: E. coli DH10B, only a few colonies; protein in cells

## CTCGAGTAACGGACGAACGCAAACAAACGTGGATCCTTCAGCTGTCTCTTATACACATCTGAACTAGTTGTAGGCCTAAATTCGAACTGATCCTTCAACTCAGCAAAAGTTCGATTTATTCAACAAAGCCACGTTGTGTCTCAAAATCTCTGATGTTACATTGCACAAGATAAAAATATATCATCATGAACAATAAAACTGTCTGCTTACATAAACAGTAATACAAGGGGTGTTATGAGCCATATTCAACGGGAAACGTCTTGCTCTAGGCCGCGATTAAATTCCAACATGGATGCTGATTTATATGGGTATAAATGGGCTCGCGATAATGTCGGGCAATCAGGTGCGACAATCTATCGATTGTATGGGAAGCCCGATGCGCCAGAGTTGTTTCTGAAACATGGCAAAGGTAGCGTTGCCAATGATGTTACAGATGAGATGGTCAGACTAAACTGGCTGACGGAATTTATGCCTCTTCCGACCATCAAGCATTTTATCCGTACTCCTGATGATGCATGGTTACTCACCACTGCGATCCCCGGGAAAACAGCATTCCAGGTATTAGAAGAATATCCTGATTCAGGTGAAAATATTGTTGATGCGCTGGCAGTGTTCCTGCGCCGGTTGCATTCGATTCCTGTTTGTAATTGTCCTTTTAACAGCGATCGCGTATTTCGTCTCGCTCAGGCGCAATCACGAATGAATAACGGTTTGGTTGATGCGAGTGATTTTGATGACGAGCGTAATGGCTGGCCTGTTGAACAAGTCTGGAAAGAAATGCATAAGCTTTTGCCATTCTCACCGGATTCAGTCGTCACTCATGGTGATTTCTCACTTGATAACCTTATTTTTGACGAGGGGAAATTAATAGGTTGTATTGATGTTGGACGAGTCGGAATCGCAGACCGATACCAGGATCTTGCCATCCTATGGAACTGCCTCGGTGAGTTTTCTCCTTCATTACAGAAACGGCTTTTTCAAAAATATGGTATTGATAATCCTGATATGAATAAATTGCAGTTTCATTTGATGCTCGATGAGTTTTTCTAACACGATATCGTCAATTGCTAGATGTGTATAAGAGACAGGCTGGACAACGAGAGTAGTTACGTCCTAGG (double strand) [Mobilisable kanamycin region of TnAa minimal test vectors]
  activity on this sequence (colonies per plate (undiluted)): 47
